Measured data: PubChem BioAssay AID1224828 (NIAID, 2016)
The deposit covers about 17,000 reagents; shown is a part drawn at random. Over the whole deposit, 762 (4.5%) were called active. 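Active calls include both raised and lowered p65 entry, mostly lowered; wells with fewer than 50 cells lack a z-score.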 The raw values are shown without normalisation. The numbers tell different reagents against one gene apart.

- Aim: 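Knock-downs that increase or decrease LPS-induced p65 nuclear translocation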 (primary screen)
- System: mouse RAW264.7 G9 macrophage reporter cells (GFP-p65, Tnf promoter-mCherry)
- Reagents: siRNA pool against mouse genes, 100 nM
- Timing: 2 days siRNA transfection, then 40 min LPS before fixation
- Conditions: LPS (Salmonella minnesota R595) at 10 ng/ml
- Read-out: 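Microscopy ratio of nuclear to perinuclear-ring GFP-p65 signal, scaled to the plate median; gene score is the average of two replicate robust z-scores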
- Direction: p65 translocation robust z-score: higher = more nuclear NF-kappaB p65 after LPS than the plate median; nuclear/cytoplasmic p65 ratio: higher = more nuclear NF-kappaB p65
- Active means: 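Called active when z exceeds 3.3 or falls under -1.56 (median of Tlr4 controls), giving activity score of at least 50; no calls for control wells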
- Calls: active = hit (p65 shift raised or lowered); inactive = no clear change

gene knocked down	pool no.	p65 translocation robust z-score	nuclear/cytoplasmic p65 ratio, rep 1	nuclear/cytoplasmic p65 ratio, rep 2	low cell count flag	Call
Shc2 (GeneID 216148)	1	-0.02	1.48	1.62	enough cells to score	inactive
Hsd17b10 (GeneID 15108)	1	2.4	1.76	1.9	enough cells to score	inactive
Pank2 (GeneID 74450)	1	-0.16	1.47	1.35	enough cells to score	inactive
Vmn1r84 (GeneID 171267)	1	-1.16	1.24	1.18	enough cells to score	inactive
Or51ab3 (GeneID 259104)	1	0.4	1.59	1.24	enough cells to score	inactive
Ehf (GeneID 13661)	1	-1.07	1.3	1.25	enough cells to score	inactive
Fmn2 (GeneID 54418)	1	2.35	1.88	1.84	enough cells to score	inactive
Irak3 (GeneID 73914)	1	-0.98	1.56	1.23	enough cells to score	inactive
Mov10l1 (GeneID 83456)	1	1.1	2.04	1.69	enough cells to score	inactive
Adgrg7 (GeneID 239853)	1	1.62	1.74	1.81	enough cells to score	inactive
Klk1b7-ps (GeneID 16604)	1		1.5	1.5	fewer than 50 cells per well; well left out of scoring	inactive
Agtr1b (GeneID 11608)	1	-0.18	1.5	1.54	enough cells to score	inactive
Trmt6 (GeneID 66926)	1		1.35	1.14	fewer than 50 cells per well; well left out of scoring	inactive
Tnni3k (GeneID 435766)	1	0.9	1.84	1.54	enough cells to score	inactive
Rragc (GeneID 54170)	1	0.23	1.48	1.22	enough cells to score	inactive
Carns1 (GeneID 107239)	1	-1.2	1.46	1.46	enough cells to score	inactive
Bok (GeneID 51800)	1	0.34	1.72	1.61	enough cells to score	inactive
Mrgpra7 (GeneID 404236)	1	0.53	1.92	1.63	enough cells to score	inactive
Nxph2 (GeneID 18232)	1	1.56	1.97	1.74	enough cells to score	inactive
Zfp474 (GeneID 66758)	1	-0.04	1.25	1.3	enough cells to score	inactive
Xpo5 (GeneID 72322)	1	-0.83	1.35	1.12	enough cells to score	inactive
G6pc2 (GeneID 14378)	1	-0.4	1.4	1.3	enough cells to score	inactive
Vmn1r78 (GeneID 171242)	1		1.17	1.15	fewer than 50 cells per well; well left out of scoring	inactive
Rcc1 (GeneID 100088)	1	-0.37	1.38	1.36	enough cells to score	inactive
Trim27 (GeneID 19720)	1	0.83	1.78	1.52	enough cells to score	inactive
Gtf2f1 (GeneID 98053)	1	0.82	1.72	1.75	enough cells to score	inactive
Ca9 (GeneID 230099)	1	-0.79	1.42	1.57	enough cells to score	inactive
Ube2d2b (GeneID 73318)	1	-0.49	1.46	1.62	enough cells to score	inactive
Nox1 (GeneID 237038)	1	4.62	2.34	2.27	enough cells to score	active
Cd84 (GeneID 12523)	1	-0.04	1.4	1.37	enough cells to score	inactive

Not a retest: 3 of the entries above.
gene knocked down	pool no.	p65 translocation robust z-score	nuclear/cytoplasmic p65 ratio, rep 1	nuclear/cytoplasmic p65 ratio, rep 2	low cell count flag	Call
Nxph2 (GeneID 18232)	1	1.56	1.97	1.74	enough cells to score	inactive
Zfp474 (GeneID 66758)	1	-0.04	1.25	1.3	enough cells to score	inactive
Xpo5 (GeneID 72322)	1	-0.83	1.35	1.12	enough cells to score	inactive

Further entries follow:
gene knocked down	pool no.	p65 translocation robust z-score	nuclear/cytoplasmic p65 ratio, rep 1	nuclear/cytoplasmic p65 ratio, rep 2	low cell count flag	Call
Or2y8 (GeneID 211472)	1	1.45	1.8	1.63	enough cells to score	inactive
Pdcd1 (GeneID 18566)	1	-1.05	1.32	1.2	enough cells to score	inactive
Gzmf (GeneID 14943)	1	-3.02	1.24	1.06	enough cells to score	active
Lman2 (GeneID 66890)	1	-0.17	1.64	1.56	enough cells to score	inactive
Hspd1 (GeneID 15510)	1	-0.25	1.26	1.36	enough cells to score	inactive
Bid (GeneID 12122)	1	0.09	1.64	1.62	enough cells to score	inactive
Msx3 (GeneID 17703)	1	0.62	1.92	1.65	enough cells to score	inactive
Tlr6 (GeneID 21899)	1	-1.55	1.48	1.19	enough cells to score	inactive
Rhox4b (GeneID 57737)	1	-0.06	1.58	1.25	enough cells to score	inactive
Galnt9 (GeneID 231605)	1		1.31	1.49	fewer than 50 cells per well; well left out of scoring	inactive
Kdm6a (GeneID 22289)	1	1.42	1.58	1.38	enough cells to score	inactive
Smco4 (GeneID 170748)	1	-0.69	1.38	1.83	enough cells to score	inactive
Pglyrp3 (GeneID 242100)	1	-0.62	1.35	1.18	enough cells to score	inactive
Atoh8 (GeneID 71093)	1	1.71	1.96	1.78	enough cells to score	inactive
Muc20 (GeneID 224116)	1	0.86	1.86	1.77	enough cells to score	inactive
Or5k14 (GeneID 258998)	1	0.18	1.62	1.46	enough cells to score	inactive
Or5k14 (GeneID 258998)	2	-1.47	1.38	1.3	enough cells to score	inactive
Prkar1b (GeneID 19085)	1	-0.26	1.4	1.43	enough cells to score	inactive
Cfl1 (GeneID 12631)	1	0.19	1.61	1.83	enough cells to score	inactive
Fam162a (GeneID 70186)	1	0.33	1.38	1.37	enough cells to score	inactive
Vmn1r217 (GeneID 171273)	1	-2.82	1.02	0.992	enough cells to score	active
Nav1 (GeneID 215690)	1	-1.97	1.47	1.29	enough cells to score	active
Tab1 (GeneID 66513)	1	-0.18	1.42	1.32	enough cells to score	inactive
Creg2 (GeneID 263764)	1	0.98	1.69	1.98	enough cells to score	inactive
Onecut2 (GeneID 225631)	1	-1.57	1.23	1.21	enough cells to score	active
Fmo5 (GeneID 14263)	1	-0.26	1.34	1.36	enough cells to score	inactive
Prmt1 (GeneID 15469)	1	-0.55	1.35	1.31	enough cells to score	inactive
Cfd (GeneID 11537)	1	-1.27	1.43	1.51	enough cells to score	inactive
Zfp36l2 (GeneID 12193)	1	-0.24	1.35	1.22	enough cells to score	inactive
